PMC8062489, “Tgf-β1 transcriptionally promotes 90K expression: possible implications for cancer progression”
Construct, isoform or probe ends are uncertain for at least one entry. Results from cells or extracts need not show a direct contact. For some assays here: Negatives hold for the conditions tested. For some assays here: At least one verdict rests on a figure or table, not on a statement of the authors. For some assays here: Weaker means in comparison with the reference protein, sequence or condition of that experiment.

How the values were obtained:
[1] = test system: USF1 (FRTL-5 nuclear extract) + USF2 (FRTL-5 nuclear extract); assay: competition with a labelled probe; conditions: TGF-b1-treated cell extract, 20 mM HEPES (pH not stated), 0.1% NP40, 5 mM MgCl2, 50 mM KCl, 2% glycerol, 2 mM DTT, 50 ng/ml poly(dI-dC), room temperature, 20 ul, 5 ug nuclear extract, protein in an extract
[2] = test system: USF1 (FRTL-5 nuclear extract) + USF2 (FRTL-5 nuclear extract); assay: EMSA; conditions: 20 mM HEPES (pH not stated), 0.1% NP40, 5 mM MgCl2, 50 mM KCl, 2% glycerol, 2 mM DTT, 50 ng/ml poly(dI-dC), room temperature, 20 ul, 5 ug nuclear extract, protein in an extract
[3] = test system: USF1 (FRTL-5 nuclear extract) + USF2 (FRTL-5 nuclear extract); assay: EMSA supershift; conditions: TGF-b1-treated cell extract, anti-USF1 or anti-USF2; 20 mM HEPES (pH not stated), 0.1% NP40, 5 mM MgCl2, 50 mM KCl, 2% glycerol, 2 mM DTT, 50 ng/ml poly(dI-dC), room temperature, 20 ul, 5 ug nuclear extract; protein in an extract; label: 5'-32P as probe, unlabeled as competitor
[4] = unlabeled vs Oligo I probe, label: unlabeled competitor
[5] = 5H extract, unaltered vs Oligo I, label: 5'-32P

“AGAGATCTGACGTCAGACAGCTAG (double strand) [CRE]”: no binding [1, 4].
“CTGCCCTAAAATGTGTATTCCTAGGAAATG (double strand) [FBE (FAST-1 binding element)]”: no binding [1, 4].
“GCAACATCCGTCATGTGTTTTCTGGA (double strand) [CM3]”: binds [2, 5].
“GCAGCATCAGTCATGTGTTTTCTGGA (double strand) [CM2]”: binds [2, 5].
“GCAGCCTCAGGCATGTGTTTTCTGGA (double strand) [CM1]”: binds more weakly ([2]; 5H extract: nearly eliminated (3A), TGF-b1 extract: complex not duplicated (3D), label: 5'-32P).
“GCAGCCTCCGTCATCTGTTTCCTGGA (double strand) [TM1]”: binds more weakly ([2]; 5H extract, nearly eliminated, label: 5'-32P).
“GCAGCCTCCGTCATGGATTTTCTGGA (double strand) [CEM]”: no binding ([2]; TGF-b1-treated cell extract, label: 5'-32P).
“GCAGCCTCCGTCATGTGTTTCATGGA (double strand) [TM2]”: binds more weakly ([2]; 5H extract, partly attenuated, label: 5'-32P).
“GCAGCCTCCGTCATGTGTTTTCTGGA (double strand) [Oligo I]”: binds ([1]; 20x unlabeled self-competitor, label: 5'-32P as probe, unlabeled as competitor); binds [3].
“GGAAGCAGACCACGGAGTCTGCTT (double strand) [EM]”: no binding ([1]; 20x unlabeled, label: 5'-32P as probe, unlabeled as competitor); no binding ([2]; TGF-b1-treated cell extract, label: 5'-32P as probe, unlabeled as competitor).
“GGAAGCAGACCACGTGGTCTGCTT (double strand) [EWT (E, consensus E-box)]”: binds ([1]; 20x unlabeled, inhibitory at same concentration as Oligo I, label: 5'-32P as probe, unlabeled as competitor); binds ([2]; TGF-b1-treated cell extract, same mobility as Oligo I complex, label: 5'-32P as probe, unlabeled as competitor).
